{"source": "patent US20080161260A1", "about": "“Methods for Detecting and Quantifying Cell Proliferation In Vivo” (Wyeth, priority 2006, published 2008)", "system": "genomic DNA of hippocampus cells", "assay": "chemiluminescence BrdU ELISA of BrdU incorporation into hippocampal genomic DNA in vivo", "parameters": "species or system rat", "settings": "for amount of BrdU incorporated into hippocampal DNA (chemiluminescence): four ip. injections at two hour intervals on the same day", "description": "Male Sprague-Dawley rats (Charles River Laboratories, Inc., Wilmington, Mass.) weighing 200-225 g upon arrival into the animal facility were used in all studies described in this subsequent examples. The rats were housed in pairs, allowed access to food and water ad libitum, and maintained on a 12-h light-dark cycle, with lights on at 6 a.m. All injections were performed during the light cycle.\nFour different BrdU injection protocols were tested. Animals received ip. injections of 5-bromo-2-deoxyuridine (BrdU; Sigma, St. Louis, Mo., cat. no. B-5002) in saline (15 mg/ml) as follows:\n24 hours after the last BrdU injection, rats were euthanized with CO2. The brains were extracted and placed in freezing saline. One person sectioned the brain tissue on a brain block (1.5-2 mm coronal sections), and a second person prepared at least three 1.5 mm punches of the subgranular zone of the dentate gyrus of the hippocampus (see FIGS. 9A-9C) taken from each animal. Samples were frozen immediately on dry ice, and were stored at −80° C. until DNA extraction. […]\nCOSTAR® high binding 96 well plates (Corning Inc., Acton, Mass., cat. no. 3601) were coated with monoclonal anti-BrdU antibody (BD Biosciences, San Jose, Calif., cat. no. 347580) at a dilution of 1:100 (100 μl/well) in coating buffer (55 mM NaHCO3 buffer; ph 9.0) overnight at 4° C. on a shaker. […] The wells were then washed 3 times with 1×PBS on a shaker at room temperature, and the amount of anti-BrdU POD-conjugated Fab antibody fragments bound to BrdU DNA in each well was quantified by determining the chemiluminescence produced upon addition of BM Chemiluminescence ELISA Substrate (POD) (Roche Applied Science, cat. no: 1 582 950) to the wells, following the manufacturer's instructions, and using a standard luminometer. […]\nThe samples were analyzed by chemiluminescence BrdU ELISA essentially as described in Example 4. […]", "data": [{"smiles": "O=c1[nH]c(=O)n([C@H]2C[C@H](O)[C@@H](CO)O2)cc1Br", "note": "[BrdU, 5-bromo-2′-deoxyuridine]", "values": [{"measurement": "amount of BrdU incorporated into hippocampal DNA (chemiluminescence)", "setting": "dosages greater than 100 mg/kg BrdU (150, 225 mg/kg)", "value": "does not increase further"}, {"measurement": "amount of BrdU incorporated into hippocampal DNA (chemiluminescence)", "setting": "dosages of up to 100 mg/kg BrdU, whole hippocampus 24 h after last injection", "value": "dose-dependent"}, {"measurement": "amount of BrdU incorporated into the DNA (chemiluminescence emitted)", "setting": "single daily ip. injections of 100 mg/kg BrdU on one, four or seven consecutive days, hippocampus punches", "value": "clearly increases as the number of days that BrdU is administered to the animals is increased from one to seven"}]}]}
